Assay results from PubChem BioAssay AID1347060 (Functional Genomics Laboratory (NCATS/FGL), 2019).
Among all 2,500 compounds or so, about 890 (36%) were called active. These results got no clear call from the source, so the numbers are uncertain. The limit is not given here; nearly all actives have AC50 up to about 26 µM.

Experiment: growth inhibition of DIPG glioma cells, dose response, cell-based, SU-DIPG-XVII, MIPE5.0, CellTiter-Glo, qHTS (AID 1347060);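 also: cells exposed to compound for 48 hours before viability readout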
Details: SU-DIPG-XVII viability, CellTiter-Glo ATP luminescence
Text: Diffuse intrinsic pontine glioma (DIPG) is a rare pediatric brain tumor with a poor prognosis. This diagnosis is typically fatal as the tumor location prohibits surgical removal therefore patients are left with radiotherapy as the only approved therapeutic option. Due to the lack of chemotherapeutic options for this tumor type, we sought to screen a library of investigational and approved agents to determine efficacy in vitro with the goal of finding novel treatments for in vivo testing. The NCATS developed MIPE libraries were used to screen six patient derived DIPG cell lines, JHH-DIPG-1, SU-DIPG-IV, SU-DIPG-VI, SU-DIPG-XIII, SU-DIPG-XVII and SU-DIPG-XXV. Each compound was screened at an 11 concentrations from 47uM to 7.6nM. Top active compounds from this screen were then moved to drug combination screening in order to determine synergistic compounds that could move quickly to clinical trials.
JHH-DIPG-1, SU-DIPG-IV, SU-DIPG-VI, SU-DIPG-XIII, SU-DIPG-XVII and SU-DIPG-XXV were seeded into 1536 well white polystyrene tissue culture treated Corning plates using a MultiDrop Combi dispenser (ThermoFisher Scientific) and small cassette in 5 microL their normal growth media. […] Luminescence readings were taken using a Viewlux (PerkinElmer) with a 2 second exposure time per plate. […]
For CN(CCCl)CCCl, the AC50 was inconclusive: 26.3 µM.
